Test results as given in patent publication US20250043290A1, “RNA SEQUENCES THAT INDUCE FLUORESCENCE OF SMALL MOLECULE FLUOROPHORES, MOLECULAR COMPLEXES, SENSORS, AND METHODS OF USE THEREOF” (CORNELL UNIVERSITY, priority 2021, published 2025).
“Also recorded” adds a separate entry of the source.

How the values were obtained:
HEK293T cells = assay: Background fluorescence of dye incubated with cells; assay type: cell-based; conditions: 10 μM
Protocol: FIG. 31A is a graph showing the results of an experiment evaluating fluorescence of DFAME when mixed with cells. An important criteria for a fluorogenic dye is that it must have very low fluorescence when mixed with cells. To test this, 10 μM DFAME was incubated with cultured HEK293T cells and the fluorescence intensity of the DFAME-incubated cells was measured. […] Although the background fluorescence in cells induced by DFAME (n=48 cells) was higher than DFHO (n=47 cells) or DFHBI-1T (n=44 cells), it was reasoned that DFAME could be used if enough fluorogenic aptamer is used in cells. Data were collected from three independent cell cultures. Values are means±s.d. FIG. 31B is a graph showing the cytotoxicity of DFAME. To apply a fluorogenic dye in cells, it is critical that this dye has minimal cytotoxicity. To test the cytotoxicity of DFAME, HEK293T cells were first incubated with 10 μM DFAME, then illuminated for 10 minutes using a Nikon Intensilight C-HGFIE 130 W mercury lamp with the TRITC filter set. Control cells were illuminated under identical conditions either with 0.2% DMSO (illuminated with the TRITC filter set) or 10 μM malachite green (illuminated with the Cy5 filter set). […] MTT absorbance readings were performed at 550 nm with 650 nm absorbance used for background subtraction. […]

mES cells = assay: Ratiometric SAM imaging in mES cells; assay type: cell-based, Mouse; conditions: sensor 4-2

SMILES	Fluorescence of dye-incubated cells (HEK293T cells)	Intracellular SAM concentration (mES cells; +2i media) [µM]	Intracellular SAM concentration (mES cells; −2i media) [µM]
COC(=O)/C=C/C1=NC(=C\c2cc(F)c(O)c(F)c2)/C(=O)N1C [DFAME, methyl 3-((Z)-4-(3,5-difluoro-4-hydroxybenzylidene)-1-methyl-5-oxo-4,5-dihydro-1H-imidazol-2-yl)acrylate]	measurable but low levels of red fluorescence; also recorded: measurable, but low levels of red fluorescence	–	–
C[S+](CC[C@H](N)C(=O)O)C[C@H]1O[C@@H](n2cnc3c(N)ncnc32)[C@H](O)[C@@H]1O (stereo partly drawn) [SAM, S-adenosylmethionine]	–	40 to 70	10 to 120
